The labels stand for the following.
B1: Pet127^1-215 (pet127(1–215)-6xHA) (domain or fragment, UniProt P32606 1-215)
chain: MGFYNCRFLSRRLSVEPCRIGSAAKSYQQRSIYHFGAALTNAPSGRETPDKLRSDLHSALEMVDEIYDTNSTVEDIGNKEKGGRQKYTEEMDKAINLLKTNIKKEYRHDKYLERTKVGTYPGRRTYPGRRTYPARRTYPASRTYSDSNSYTFRINVQKIRHALVRYNQDGVQKHNQKPPRIGHGLTRVLYQPLSLQKLRDNRSRMYNFDPAVENI
B2: Pet127-HA (PET127-6xHA) (protein, UniProt P32606 1-800)
chain: MGFYNCRFLSRRLSVEPCRIGSAAKSYQQRSIYHFGAALTNAPSGRETPDKLRSDLHSALEMVDEIYDTNSTVEDIGNKEKGGRQKYTEEMDKAINLLKTNIKKEYRHDKYLERTKVGTYPGRRTYPGRRTYPARRTYPASRTYSDSNSYTFRINVQKIRHALVRYNQDGVQKHNQKPPRIGHGLTRVLYQPLSLQKLRDNRSRMYNFDPAVENINPEYLEKKSEKDVNTDSSGEGQSKPIFITPHKDESLLKVAKEHRKKYISSSSSMTSVLSQLHYLLSNFRRLNIIDSSISKNFPQKNCNYSESAYFPSAVILRKKRNGICSIDSDRSLDREIVLSVLGHYLEDFLTEKSLKNSSKSENYHYSSIDEFIVRSQLDAYDPNLPGTGVFDLKTRAVSAIRYDLSHVESNNNQTGYEIDKVYGEFESLEREYFELIRSALLKYSLQARIGKMDGIFVAYHNISKMFGFQYLPLDELDYIIHSSYNSKFDSLLKEKNDITKGIYGEEDYILHYDRDDRKIACLVANREFKMSMNLFSNILKHVEQLLNSSNTKWEKCKIMLKTEVEEKRSKSGRFFNEPVLNIVALPLSPEYEDKSLLVKDTSNEQLTEELLNLRSYNENLLEEHLNSLVGFKVNVKHFYHHHPNTTHLPDFALKKNDILDTESRKYISDMMKRDWYKDIPSTQTPNFFHASDVSTWEVNSTFTDINDKQILRKLYFKYLDVKLNALKNQVITRQEPDMSKKDEIMNRIKSLQARNDHRDNGSNKRYSNFGPTRLQTKLRAYAKKGALRRKLLERSNKFHI
B3: Pet127-nd (pet127-nd-6xHA) (protein, UniProt P32606 1-800)
chain: MGFYNCRFLSRRLSVEPCRIGSAAKSYQQRSIYHFGAALTNAPSGRETPDKLRSDLHSALEMVDEIYDTNSTVEDIGNKEKGGRQKYTEEMDKAINLLKTNIKKEYRHDKYLERTKVGTYPGRRTYPGRRTYPARRTYPASRTYSDSNSYTFRINVQKIRHALVRYNQDGVQKHNQKPPRIGHGLTRVLYQPLSLQKLRDNRSRMYNFDPAVENINPEYLEKKSEKDVNTDSSGEGQSKPIFITPHKDESLLKVAKEHRKKYISSSSSMTSVLSQLHYLLSNFRRLNIIDSSISKNFPQKNCNYSESAYFPSAVILRKKRNGICSIDSDRSLDREIVLSVLGHYLADFLTEKSLKNSSKSENYHYSSIDEFIVRSQLAAYDPNLPGTGVFALATRAVSAIRYDLSHVESNNNQTGYEIDKVYGEFESLEREYFELIRSALLKYSLQARIGKMDGIFVAYHNISKMFGFQYLPLDELDYIIHSSYNSKFDSLLKEKNDITKGIYGEEDYILHYDRDDRKIACLVANREFKMSMNLFSNILKHVEQLLNSSNTKWEKCKIMLKTEVEEKRSKSGRFFNEPVLNIVALPLSPEYEDKSLLVKDTSNEQLTEELLNLRSYNENLLEEHLNSLVGFKVNVKHFYHHHPNTTHLPDFALKKNDILDTESRKYISDMMKRDWYKDIPSTQTPNFFHASDVSTWEVNSTFTDINDKQILRKLYFKYLDVKLNALKNQVITRQEPDMSKKDEIMNRIKSLQARNDHRDNGSNKRYSNFGPTRLQTKLRAYAKKGALRRKLLERSNKFHI
B4: Pet127 amino acids 48–215 (pET15b-Pet127-N504-6xHis) (domain or fragment, UniProt P32606 48-215)
chain: TPDKLRSDLHSALEMVDEIYDTNSTVEDIGNKEKGGRQKYTEEMDKAINLLKTNIKKEYRHDKYLERTKVGTYPGRRTYPGRRTYPARRTYPASRTYSDSNSYTFRINVQKIRHALVRYNQDGVQKHNQKPPRIGHGLTRVLYQPLSLQKLRDNRSRMYNFDPAVENI
B5: 6xHis-Pet127^48-800 (protein, UniProt P32606 48-800)
chain: TPDKLRSDLHSALEMVDEIYDTNSTVEDIGNKEKGGRQKYTEEMDKAINLLKTNIKKEYRHDKYLERTKVGTYPGRRTYPGRRTYPARRTYPASRTYSDSNSYTFRINVQKIRHALVRYNQDGVQKHNQKPPRIGHGLTRVLYQPLSLQKLRDNRSRMYNFDPAVENINPEYLEKKSEKDVNTDSSGEGQSKPIFITPHKDESLLKVAKEHRKKYISSSSSMTSVLSQLHYLLSNFRRLNIIDSSISKNFPQKNCNYSESAYFPSAVILRKKRNGICSIDSDRSLDREIVLSVLGHYLEDFLTEKSLKNSSKSENYHYSSIDEFIVRSQLDAYDPNLPGTGVFDLKTRAVSAIRYDLSHVESNNNQTGYEIDKVYGEFESLEREYFELIRSALLKYSLQARIGKMDGIFVAYHNISKMFGFQYLPLDELDYIIHSSYNSKFDSLLKEKNDITKGIYGEEDYILHYDRDDRKIACLVANREFKMSMNLFSNILKHVEQLLNSSNTKWEKCKIMLKTEVEEKRSKSGRFFNEPVLNIVALPLSPEYEDKSLLVKDTSNEQLTEELLNLRSYNENLLEEHLNSLVGFKVNVKHFYHHHPNTTHLPDFALKKNDILDTESRKYISDMMKRDWYKDIPSTQTPNFFHASDVSTWEVNSTFTDINDKQILRKLYFKYLDVKLNALKNQVITRQEPDMSKKDEIMNRIKSLQARNDHRDNGSNKRYSNFGPTRLQTKLRAYAKKGALRRKLLERSNKFHI
B6: Pet127 amino acids 213–800 (pET15b-Pet127-C1764-6xHis) (domain or fragment, UniProt P32606 213-800)
chain: ENINPEYLEKKSEKDVNTDSSGEGQSKPIFITPHKDESLLKVAKEHRKKYISSSSSMTSVLSQLHYLLSNFRRLNIIDSSISKNFPQKNCNYSESAYFPSAVILRKKRNGICSIDSDRSLDREIVLSVLGHYLEDFLTEKSLKNSSKSENYHYSSIDEFIVRSQLDAYDPNLPGTGVFDLKTRAVSAIRYDLSHVESNNNQTGYEIDKVYGEFESLEREYFELIRSALLKYSLQARIGKMDGIFVAYHNISKMFGFQYLPLDELDYIIHSSYNSKFDSLLKEKNDITKGIYGEEDYILHYDRDDRKIACLVANREFKMSMNLFSNILKHVEQLLNSSNTKWEKCKIMLKTEVEEKRSKSGRFFNEPVLNIVALPLSPEYEDKSLLVKDTSNEQLTEELLNLRSYNENLLEEHLNSLVGFKVNVKHFYHHHPNTTHLPDFALKKNDILDTESRKYISDMMKRDWYKDIPSTQTPNFFHASDVSTWEVNSTFTDINDKQILRKLYFKYLDVKLNALKNQVITRQEPDMSKKDEIMNRIKSLQARNDHRDNGSNKRYSNFGPTRLQTKLRAYAKKGALRRKLLERSNKFHI

No constants are given. Whether binding was seen depends on the method and setting. Binding seen in cells or lysates may run through a third protein. A result given as binding can be weak or reduced; the word gives no strength. Sequences can lack the tags named with a protein.

The first assay concerns the target V5-Rpo41 (RPO41preseq-3xV5-RPO41) (S. cerevisiae). The assay can be described thus: co-IP; yeast lysates in NP40 buffer (50mM Tris pH7.5, 150mM NaCl, 1% Np40), 0.2% BSA; V5-Rpo41 precipitated with anti-V5 agarose beads, 2 hours at 4C; blotted for HA and V5.
In the case of B1, the binding result is reported as “binds”. For B2, the binding entry is recorded as “binds”.

With B3, the binding entry was “binds”.

The target in the next assay is GST-Rpo41 (S. cerevisiae). The assay is described as follows: pull-down; bacterial lysates; GST-Rpo41 or GST bound to glutathione beads and washed, then equal amounts of lysate with the Pet127 construct added, 2h at 4°C; washed with NP40 buffer + 0.3% BSA; immunoblot; only the target purified.
In the case of B4, the binding entry is reported as “binds”. Same read-out and setting: the value for B5 was “binds”.

B6: the binding entry is “no binding”.

Source of the values: paper PMC8555793.
